Drawing on PubChem BioAssay AID330 (DTP/NCI, 2004), this text covers T/C and survivor count for 17 molecules.

SMILES strings stand for the structures. The list does not hold the whole screen: it is rich in T/C values a quarter to a half above the control, in often repeated tests (any T/C) and in doses without a T/C. Other doses and runs of a compound stand elsewhere. T/C gives the treated animals as a percentage of the vehicle group. Some entries give survivors of the animals treated and no T/C: the source files T/C as zero there, which appears to mark a toxic dose or a test without result, not a measured value. Some doses without a T/C left all or most animals alive at the check, yet need not have been tolerated: survival well below the control is almost never listed, so the zero probably covers shortened survival too. Counts of survivors are from the toxicity check (mostly the fifth day) where no day follows; animals may have died later. Schedules are NCI's codes, read here as Q, the interval in days (D) or hours (H), X, the number of doses. Some entries were tested several times; the values are given in rising order. Signs of the kind (2×) say how often a value occurs here. Some molecules as drawn cover several salts, stereoisomers or complexes of the source; a dose is that of the sample tested. For survival time, the PubChem record calls one and a half times the control and up active, and a quarter to a half above the control has no call in these data; cut-offs in other NCI protocols can differ. Some T/C values carry the count of animals alive at the toxicity check (mostly the fifth day); where none is given, no animal had died by that day.

The subject of the assay is P388 leukemia ip, CD2F1 mice, survival T/C. Briefly: NCI In Vivo Anticancer Drug Screen. Data for tumor model P388 Leukemia (intraperitoneal) in CD2F1 (CDF1) mice. As to conditions: T/C endpoint: median survival time, higher T/C = longer survival.
The mark [1] stands for this setting: dose: 160.0 mg/kg/injection, schedule: Q01DX009 (ip), vehicle: other.
Setting [2] is: dose: 200.0 mg/kg/injection, schedule: Q01DX005 (ip), vehicle: saline.
Where [3] appears, read: dose: 200.0 mg/kg/injection, schedule: Q01DX005 (ip), vehicle: saline with Tween-80.
Where [4] appears, read: dose: 240.0 mg/kg/injection, schedule: Q01DX005 (ip), vehicle: saline.

On to `S=c1nc[nH]c2nc[nH]c12`, for which the T/C reads like this: (dose: 20.0 mg/kg/injection, schedule: Q01DX009 (ip), vehicle: other) 95, 104, 106 (2×), 109, 118, 122 % of control; (dose: 40.0 mg/kg/injection, schedule: Q01DX009 (ip), vehicle: other) 93, 96, 103, 106, 111, 115, 134 % of control; (dose: 80.0 mg/kg/injection, schedule: Q01DX001 (ip), vehicle: other) 135 % of control; (dose: 80.0 mg/kg/injection, schedule: Q01DX005 (ip), vehicle: other) 128 % of control; (dose: 80.0 mg/kg/injection, schedule: Q01DX009 (ip), vehicle: other) 92, 98, 101, 116, 120, 121, 146 % of control; (dose: 80.0 mg/kg/injection, schedule: Q04DX003 (ip), vehicle: other) 130 % of control. For the same molecule, the T/C (dose: 100.0 mg/kg/injection, schedule: Q01DX005 (ip), vehicle: saline) was 140 % of control; the T/C (dose: 100.0 mg/kg/injection, schedule: Q01DX009 (ip), vehicle: Klucel (hydroxypropylcellulose) (HPC)) is 136 % of control; the T/C (dose: 150.0 mg/kg/injection, schedule: Q04DX003 (ip), vehicle: Klucel (hydroxypropylcellulose) (HPC)) was 139 % of control; the T/C (dose: 160.0 mg/kg/injection, schedule: Q01DX001 (ip), vehicle: other) was 127 % of control; the T/C (dose: 160.0 mg/kg/injection, schedule: Q01DX005 (ip), vehicle: alkali diluted with saline) is 142 % of control [5 of 6 alive]; the T/C under setting [1] is 129 and 134 % of control. Further, the T/C is 140 % of control (dose: 160.0 mg/kg/injection, schedule: Q04DX003 (ip), vehicle: other); 138 % of control (dose: 160.0 mg/kg/injection, schedule: Q04DX003 (iv), vehicle: other); 125 % of control (dose: 200.0 mg/kg/injection, schedule: Q01DX009 (ip), vehicle: Klucel (hydroxypropylcellulose) (HPC)); 135 % of control (dose: 300.0 mg/kg/injection, schedule: Q04DX003 (ip), vehicle: Klucel (hydroxypropylcellulose) (HPC)); 137 % of control [5 of 6 alive] (dose: 320.0 mg/kg/injection, schedule: Q04DX003 (ip), vehicle: other); 125 % of control (dose: 500.0 mg/kg/injection, schedule: Q01DX001 (ip), vehicle: saline). Moreover, the T/C was 132 % of control (dose: 600.0 mg/kg/injection, schedule: Q04DX003 (ip), vehicle: Klucel (hydroxypropylcellulose) (HPC)) and 130 % of control (dose: 1000.0 mg/kg/injection, schedule: Q01DX001 (ip), vehicle: saline). For the same molecule, the survivor count reads like this: (dose: 80.0 mg/kg/injection, schedule: Q01DX009 (ip), vehicle: alkali diluted with water) 6 of 6; (dose: 150.0 mg/kg/injection, schedule: Q01DX009 (ip), vehicle: alkali diluted with saline) 8 of 8; (dose: 160.0 mg/kg/injection, schedule: Q01DX009 (ip), vehicle: alkali diluted with water) 4 of 6; under setting [1], 4 of 6, 5 of 6, 6 of 6; (dose: 200.0 mg/kg/injection, schedule: Q01DX005 (ip), vehicle: alkali diluted with saline) 0 of 6; (dose: 250.0 mg/kg/injection, schedule: Q01DX001 (ip), vehicle: alkali diluted with saline) 2 of 6. Besides, the survivor count runs as follows: (dose: 320.0 mg/kg/injection, schedule: Q01DX009 (ip), vehicle: alkali diluted with water) 0 of 6; (dose: 400.0 mg/kg/injection, schedule: Q01DX005 (ip), vehicle: saline) 4 of 6 and 5 of 6; (dose: 450.0 mg/kg/injection, schedule: Q04DX003 (ip), vehicle: alkali diluted with saline) 3 of 8; (dose: 640.0 mg/kg/injection, schedule: Q01DX001 (ip), vehicle: other) 5 of 6; (dose: 2000.0 mg/kg/injection, schedule: Q01DX001 (ip), vehicle: saline) 5 of 6.
For `Cc1csc(Cl)c1NC1=NCCN1`, under setting [2], the survivor count is 0 of 6.
With `CCOC(=O)C1=C(C)O/C(=C\c2cccc(C(F)(F)F)c2)C1=O`, the survivor count under setting [3] is given as 1 of 6.
Regarding `CCCC(CC)(C(=O)Nc1ccc2nc(C)cc(N)c2c1)C(=O)Nc1ccc2nc(C)cc(N)c2c1`, the survivor count under setting [3] was 3 of 5.
As for `O=P1(O)OC[C@H]2CCC[C@@H]2O1`, under setting [4], the survivor count is listed as 2 of 6.
In the case of `Cc1cc(=O)oc2c(C)c3oc4c(c3cc12)CN(C)CC4`, where the note is “dose: 200.0 mg/kg/injection, schedule: Q01DX005 (ip), vehicle: Klucel (hydroxypropylcellulose) (HPC)”, the survivor count is given as 6 of 6.
Regarding `O=S(=O)(F)c1ccc(Cl)cc1C[P+](c1ccccc1)(c1ccccc1)c1ccccc1`, the T/C (dose: 50.0 mg/kg/injection, schedule: Q01DX001 (ip), vehicle: Klucel (hydroxypropylcellulose) (HPC)) is 125 [5 of 6 alive] and 131 % of control. In addition, the survivor count (dose: 100.0 mg/kg/injection, schedule: Q01DX001 (ip), vehicle: Klucel (hydroxypropylcellulose) (HPC)) is listed as 0 of 6.
With `CC1CC(C)(C)C2=NCCN21` (stereo unspecified), the survivor count reads like this: (dose: 100.0 mg/kg/injection, schedule: Q01DX009 (ip), vehicle: water) 0 of 6; (dose: 120.0 mg/kg/injection, schedule: Q01DX005 (ip), vehicle: saline) 0 of 6; under setting [4], 0 of 6.
Turning to `CN1CCN(c2c3ccccc3nc3ccccc23)CC1`, the survivor count is reported as 4 of 6 (dose: 100.0 mg/kg/injection, schedule: Q04DX003 (ip), vehicle: saline); 0 of 6 (dose: 200.0 mg/kg/injection, schedule: Q04DX003 (ip), vehicle: saline); 0 of 6 (dose: 400.0 mg/kg/injection, schedule: Q04DX003 (ip), vehicle: saline).
`[NH-]C(CCC(N)=O)C(=O)O.[NH-]C(CCCN=C(N)N)C(=O)O.[Zn+2]` (stereo unspecified): the survivor count under setting [2] was 3 of 6 (2×).
Regarding `COc1ccc2c(c1OC)C(=O)N1C2=Cc2c(cc3c(c2OC)OCO3)CC1N(C)C` (stereo unspecified), the survivor count under setting [4] is given as 4 of 6.
In the case of `COC(=O)C(CC(C)C)NC(=O)C(N)CSC(c1ccccc1)(c1ccccc1)c1ccccc1` (stereo unspecified), the T/C is, setting by setting: (dose: 120.0 mg/kg/injection, schedule: Q01DX005 (ip), vehicle: Klucel (hydroxypropylcellulose) (HPC)) 141 % of control; (dose: 240.0 mg/kg/injection, schedule: Q01DX005 (ip), vehicle: Klucel (hydroxypropylcellulose) (HPC)) 130 % of control.
As for `O=c1c2ccccc2ncn1CC1(O)CC2NCCCC2O1` (stereo unspecified), the survivor count (dose: 40.0 mg/kg/injection, schedule: Q01DX009 (ip), vehicle: Klucel (hydroxypropylcellulose) (HPC)) is reported as 2 of 6.
Take `Cn1cnc([N+](=O)[O-])c1S(=O)(=O)NCN1CCOCC1`: the T/C is, setting by setting: (dose: 25.0 mg/kg/injection, schedule: Q01DX009 (ip), vehicle: Klucel (hydroxypropylcellulose) (HPC)) 125 % of control [5 of 6 alive]; (dose: 50.0 mg/kg/injection, schedule: Q01DX009 (ip), vehicle: Klucel (hydroxypropylcellulose) (HPC)) 135 % of control.
With `COc1cc(N(CCCl)CCCl)ccc1C=Nc1ccccc1C(=O)O`, the survivor count reads like this: (dose: 28.12 mg/kg/injection, schedule: Q04DX003 (ip), vehicle: saline with Tween-80) 5 of 6; (dose: 37.5 mg/kg/injection, schedule: Q04DX003 (ip), vehicle: saline with Tween-80) 6 of 6; (dose: 75.0 mg/kg/injection, schedule: Q04DX003 (ip), vehicle: saline with Tween-80) 2 of 6.
For the molecule `COc1cc2cc3cc(-c4ccc(Cl)cc4)c(N4CCCCC4)nc3nc2cc1OC`, the survivor count by setting is: (dose: 15.0 mg/kg/injection, schedule: Q01DX005 (ip), vehicle: saline with Tween-80) 6 of 6; (dose: 60.0 mg/kg/injection, schedule: Q01DX005 (ip), vehicle: saline with Tween-80) 6 of 6; (dose: 120.0 mg/kg/injection, schedule: Q01DX005 (ip), vehicle: saline with Tween-80) 6 of 6.
Turning to `COc1ccc(C2=C[P+](c3ccccc3)(c3ccccc3)C=C(c3ccccc3)O2)cc1`, the survivor count is, setting by setting: (dose: 6.0 mg/kg/injection, schedule: Q01DX005 (ip), vehicle: saline with Tween-80) 1 of 5; (dose: 12.5 mg/kg/injection, schedule: Q01DX005 (ip), vehicle: saline with Tween-80) 0 of 5 and 4 of 5; (dose: 25.0 mg/kg/injection, schedule: Q01DX005 (ip), vehicle: saline with Tween-80) 0 of 5; (dose: 50.0 mg/kg/injection, schedule: Q01DX005 (ip), vehicle: saline with Tween-80) 0 of 5.
